This is an account of results in paper PMC11116816.

Chains of the proteins cited; added tags and fusions are not shown. Residues count along the entry.
UniProt Q99MB1, residues 26-905: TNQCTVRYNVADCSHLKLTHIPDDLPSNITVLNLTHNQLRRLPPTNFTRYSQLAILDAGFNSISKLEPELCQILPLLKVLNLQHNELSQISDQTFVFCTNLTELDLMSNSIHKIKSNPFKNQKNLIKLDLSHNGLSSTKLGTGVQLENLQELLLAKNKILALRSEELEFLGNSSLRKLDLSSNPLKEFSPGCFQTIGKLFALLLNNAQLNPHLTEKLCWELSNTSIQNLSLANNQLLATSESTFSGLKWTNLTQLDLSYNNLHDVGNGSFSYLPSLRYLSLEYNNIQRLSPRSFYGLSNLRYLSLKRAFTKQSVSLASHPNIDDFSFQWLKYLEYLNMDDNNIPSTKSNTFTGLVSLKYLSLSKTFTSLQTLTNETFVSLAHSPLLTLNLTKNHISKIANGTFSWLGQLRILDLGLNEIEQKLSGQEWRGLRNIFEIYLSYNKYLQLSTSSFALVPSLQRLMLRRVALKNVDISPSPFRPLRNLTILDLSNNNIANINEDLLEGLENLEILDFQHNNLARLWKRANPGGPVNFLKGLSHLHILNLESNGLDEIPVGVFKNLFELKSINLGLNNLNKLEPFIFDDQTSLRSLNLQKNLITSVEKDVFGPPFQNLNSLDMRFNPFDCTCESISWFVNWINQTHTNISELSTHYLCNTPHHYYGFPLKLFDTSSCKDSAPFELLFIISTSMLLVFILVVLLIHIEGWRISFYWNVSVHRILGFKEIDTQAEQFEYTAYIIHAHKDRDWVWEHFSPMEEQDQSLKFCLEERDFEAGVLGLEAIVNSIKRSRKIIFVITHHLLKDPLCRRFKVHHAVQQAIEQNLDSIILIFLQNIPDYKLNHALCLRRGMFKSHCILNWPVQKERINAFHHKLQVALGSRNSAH

Experiment [1] deals with T1, human UNC93B1 T93I variant with C-terminal 3xFLAG (human) (UniProt Q9H1C4).
T1 sequence: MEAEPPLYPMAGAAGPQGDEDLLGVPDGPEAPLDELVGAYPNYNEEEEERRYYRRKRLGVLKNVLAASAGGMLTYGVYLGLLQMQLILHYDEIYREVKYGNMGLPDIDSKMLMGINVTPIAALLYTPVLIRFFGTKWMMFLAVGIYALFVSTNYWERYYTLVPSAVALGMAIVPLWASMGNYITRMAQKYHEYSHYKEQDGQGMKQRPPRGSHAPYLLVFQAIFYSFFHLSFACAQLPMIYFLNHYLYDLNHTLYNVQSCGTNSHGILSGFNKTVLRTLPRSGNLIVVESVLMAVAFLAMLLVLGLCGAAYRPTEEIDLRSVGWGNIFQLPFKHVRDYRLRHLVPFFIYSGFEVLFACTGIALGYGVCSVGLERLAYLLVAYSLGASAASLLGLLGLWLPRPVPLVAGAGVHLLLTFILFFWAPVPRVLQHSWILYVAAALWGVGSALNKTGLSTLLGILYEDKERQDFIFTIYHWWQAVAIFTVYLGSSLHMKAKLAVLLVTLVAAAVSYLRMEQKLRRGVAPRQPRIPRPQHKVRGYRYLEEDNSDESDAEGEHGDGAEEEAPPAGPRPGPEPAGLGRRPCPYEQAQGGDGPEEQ
The experiment is described as follows: co-IP; anti-Flag magnetic resin IP of UNC93B1-3xFLAG from CHAPS lysates (0.5% CHAPS, 150 mM NaCl, 40 mM HEPES, pH 7.6, 20 mM N-ethylmaleimide) of Unc93b1−/− RAW264.7 macrophages expressing the indicated variants; washed three times in lysis buffer; immunoblot of the associated protein. (In general: A western blot detects proteins with antibodies after separation by electrophoresis.)

Experiment [2] concerns the target T2, human UNC93B1 wild type with C-terminal 3xFLAG (human) (UniProt Q9H1C4).
T2 sequence: T1 sequence with I93T
The description is as above.

The next experiment deals with T3, murine TLR7-HA (mouse) (UniProt P58681).
T3 sequence: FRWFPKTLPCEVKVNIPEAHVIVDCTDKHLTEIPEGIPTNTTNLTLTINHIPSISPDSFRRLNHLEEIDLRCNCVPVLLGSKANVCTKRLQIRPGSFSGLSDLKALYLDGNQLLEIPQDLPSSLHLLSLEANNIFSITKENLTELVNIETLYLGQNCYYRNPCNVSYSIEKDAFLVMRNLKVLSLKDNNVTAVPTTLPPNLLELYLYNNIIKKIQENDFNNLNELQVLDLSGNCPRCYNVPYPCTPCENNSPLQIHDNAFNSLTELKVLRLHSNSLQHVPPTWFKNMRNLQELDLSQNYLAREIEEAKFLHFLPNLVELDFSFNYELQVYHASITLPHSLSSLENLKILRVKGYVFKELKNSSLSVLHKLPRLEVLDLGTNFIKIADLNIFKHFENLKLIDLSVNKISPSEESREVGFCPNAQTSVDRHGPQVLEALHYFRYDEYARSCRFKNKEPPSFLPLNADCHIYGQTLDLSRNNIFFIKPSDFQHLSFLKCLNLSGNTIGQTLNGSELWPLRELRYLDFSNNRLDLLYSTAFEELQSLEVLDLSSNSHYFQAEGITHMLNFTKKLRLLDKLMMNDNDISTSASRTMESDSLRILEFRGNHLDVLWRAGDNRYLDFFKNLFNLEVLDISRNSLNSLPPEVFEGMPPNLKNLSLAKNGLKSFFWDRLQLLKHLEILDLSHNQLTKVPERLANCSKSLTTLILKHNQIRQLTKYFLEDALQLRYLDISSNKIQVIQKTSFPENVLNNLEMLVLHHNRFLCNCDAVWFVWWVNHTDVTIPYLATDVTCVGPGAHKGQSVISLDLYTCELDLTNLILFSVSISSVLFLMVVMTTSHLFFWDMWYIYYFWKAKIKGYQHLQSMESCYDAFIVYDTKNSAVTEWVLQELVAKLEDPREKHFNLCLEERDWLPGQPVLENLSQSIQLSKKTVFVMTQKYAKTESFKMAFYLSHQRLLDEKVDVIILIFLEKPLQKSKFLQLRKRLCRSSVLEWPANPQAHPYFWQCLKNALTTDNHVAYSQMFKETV
The experiment is described as follows: co-IP; immunoprecipitation of TLR7-HA from purified phagosomes of Unc93b1−/− RAW264.7 macrophages expressing UNC93B1-3xFLAG variants; immunoblot and quantification of co-precipitated UNC93B1.

Experiment [3] has as its target T4, mouse UNC93B1 wild type with C-terminal 3xFLAG (mouse) (UniProt Q8VCW4).
T4 sequence: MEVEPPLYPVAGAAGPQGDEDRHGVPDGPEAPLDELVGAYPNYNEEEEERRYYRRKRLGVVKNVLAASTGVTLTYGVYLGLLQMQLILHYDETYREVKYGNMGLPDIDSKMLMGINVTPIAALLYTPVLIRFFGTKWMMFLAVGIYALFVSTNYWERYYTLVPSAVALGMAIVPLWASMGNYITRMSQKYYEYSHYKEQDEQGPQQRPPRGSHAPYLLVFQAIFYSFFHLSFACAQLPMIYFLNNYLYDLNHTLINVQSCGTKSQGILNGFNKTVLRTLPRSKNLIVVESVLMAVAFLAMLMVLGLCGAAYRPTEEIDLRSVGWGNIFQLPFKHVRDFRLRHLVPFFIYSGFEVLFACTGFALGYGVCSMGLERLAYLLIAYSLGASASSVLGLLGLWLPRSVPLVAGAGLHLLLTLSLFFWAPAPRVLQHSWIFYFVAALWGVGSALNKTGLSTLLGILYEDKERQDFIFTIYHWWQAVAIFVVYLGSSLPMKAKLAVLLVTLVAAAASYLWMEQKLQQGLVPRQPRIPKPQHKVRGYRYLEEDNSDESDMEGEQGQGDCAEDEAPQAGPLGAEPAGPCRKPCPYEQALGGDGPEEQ
The experiment is described as follows: co-IP; anti-Flag magnetic resin IP of UNC93B1-3xFLAG from CHAPS lysates (0.5% CHAPS, 150 mM NaCl, 40 mM HEPES, pH 7.6, 20 mM N-ethylmaleimide) of Unc93b1−/− RAW264.7 macrophages expressing the indicated variants; washed three times in lysis buffer; immunoblot of the associated protein.

Substitutions are numbered along the chain they refer to. Names may count otherwise. No constants are given. Whether binding was seen depends on the method and setting. In cells and extracts the contact can be indirect. Some binding calls cover weakened binding; strength is not graded here. Where a sequence is shown, tags or fusion partners need not be part of it.

Turning to “murine TLR3-HA (from UniProt Q99MB1 26-905) (receptor)”, the binding entry in experiment [1] and in experiment [2] was “binds” each time.

B1: human UNC93B1 wild type with C-terminal 3xFLAG (protein, UniProt Q9H1C4 1-597)
chain: T1 sequence with I93T
With B1, the binding entry in the experiment with murine TLR7-HA (mouse) is listed as “binds”.

B2: human UNC93B1 T93I variant with C-terminal 3xFLAG (protein, UniProt Q9H1C4 1-597)
chain: T1 sequence
With B2, the binding entry with murine TLR7-HA (mouse) is recorded as “binds”.

B3: endogenous TLR7 of RAW264.7 macrophages (receptor, UniProt P58681 27-1050)
chain: T3 sequence
Regarding B3, the binding result in experiment [3], in experiment [1] and in experiment [2] was “binds” throughout.
